This is one part of the list.
What was measured:
Experiment in all cases: log2 fold change, soluble protein after heating vs DMSO (PISA); higher = thermal stabilisation; K562 cells, 10 uM, 30 min; active = over 0.2 and 3.5 SD of the protein, either way, in both replicates (recomputed)
[1] = compound: Cc1cccc(CC(=O)N2CCc3c2ccc(-c2cn(C)c4ncnc(N)c24)c3F)n1
In short: (§1)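 Soluble protein was defined as the supernatant after 21,000xg for 90 min. It came from K562 cells at 2×10^6 cells/mL given 10 μM compound for 30 min, heated in aliquots for 3 min across 48°C-58°C, pooled, and extracted in PBS with 0.5% NP-40 at 4°C, and was quantified by TMTpro 16plex LC-MS/MS with equalised channel sums. Thermal stability against control samples, from duplicates, is reported as log2 fold change.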

Protein sequences, listed by entry. Tags and fused reporters are not part of them. Lines headed by an entry give the natural chain unless they say otherwise; changes in a name come on top.
UniProt P08294: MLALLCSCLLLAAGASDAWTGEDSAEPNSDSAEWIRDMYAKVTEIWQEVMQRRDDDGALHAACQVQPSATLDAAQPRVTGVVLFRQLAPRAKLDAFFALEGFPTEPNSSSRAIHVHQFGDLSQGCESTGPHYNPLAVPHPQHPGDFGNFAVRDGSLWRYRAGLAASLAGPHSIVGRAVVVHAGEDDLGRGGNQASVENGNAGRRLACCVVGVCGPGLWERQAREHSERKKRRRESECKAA
UniProt P53814: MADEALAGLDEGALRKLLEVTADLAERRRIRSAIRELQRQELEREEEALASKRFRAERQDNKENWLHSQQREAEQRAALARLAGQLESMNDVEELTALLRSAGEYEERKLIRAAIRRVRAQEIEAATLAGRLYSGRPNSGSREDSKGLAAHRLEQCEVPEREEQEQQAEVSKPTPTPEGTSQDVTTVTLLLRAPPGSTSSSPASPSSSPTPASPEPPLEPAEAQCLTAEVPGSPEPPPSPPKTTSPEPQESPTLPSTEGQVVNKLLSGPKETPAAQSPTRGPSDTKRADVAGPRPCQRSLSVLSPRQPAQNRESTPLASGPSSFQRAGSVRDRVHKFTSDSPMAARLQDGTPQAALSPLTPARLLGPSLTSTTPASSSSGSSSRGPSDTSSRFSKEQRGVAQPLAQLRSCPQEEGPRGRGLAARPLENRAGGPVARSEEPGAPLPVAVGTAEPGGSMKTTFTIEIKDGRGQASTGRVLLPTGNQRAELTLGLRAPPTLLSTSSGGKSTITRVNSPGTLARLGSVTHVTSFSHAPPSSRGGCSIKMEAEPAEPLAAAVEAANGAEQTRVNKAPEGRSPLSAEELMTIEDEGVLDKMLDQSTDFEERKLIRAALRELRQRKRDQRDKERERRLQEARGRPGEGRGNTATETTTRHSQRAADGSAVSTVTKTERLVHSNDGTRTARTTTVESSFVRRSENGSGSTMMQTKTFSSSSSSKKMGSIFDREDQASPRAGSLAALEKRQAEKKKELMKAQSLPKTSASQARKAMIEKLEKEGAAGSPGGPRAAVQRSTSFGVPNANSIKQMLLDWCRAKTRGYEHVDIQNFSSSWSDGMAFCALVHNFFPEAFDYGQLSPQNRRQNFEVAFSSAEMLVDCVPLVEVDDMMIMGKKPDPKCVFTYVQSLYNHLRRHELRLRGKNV
UniProt Q9NZC9: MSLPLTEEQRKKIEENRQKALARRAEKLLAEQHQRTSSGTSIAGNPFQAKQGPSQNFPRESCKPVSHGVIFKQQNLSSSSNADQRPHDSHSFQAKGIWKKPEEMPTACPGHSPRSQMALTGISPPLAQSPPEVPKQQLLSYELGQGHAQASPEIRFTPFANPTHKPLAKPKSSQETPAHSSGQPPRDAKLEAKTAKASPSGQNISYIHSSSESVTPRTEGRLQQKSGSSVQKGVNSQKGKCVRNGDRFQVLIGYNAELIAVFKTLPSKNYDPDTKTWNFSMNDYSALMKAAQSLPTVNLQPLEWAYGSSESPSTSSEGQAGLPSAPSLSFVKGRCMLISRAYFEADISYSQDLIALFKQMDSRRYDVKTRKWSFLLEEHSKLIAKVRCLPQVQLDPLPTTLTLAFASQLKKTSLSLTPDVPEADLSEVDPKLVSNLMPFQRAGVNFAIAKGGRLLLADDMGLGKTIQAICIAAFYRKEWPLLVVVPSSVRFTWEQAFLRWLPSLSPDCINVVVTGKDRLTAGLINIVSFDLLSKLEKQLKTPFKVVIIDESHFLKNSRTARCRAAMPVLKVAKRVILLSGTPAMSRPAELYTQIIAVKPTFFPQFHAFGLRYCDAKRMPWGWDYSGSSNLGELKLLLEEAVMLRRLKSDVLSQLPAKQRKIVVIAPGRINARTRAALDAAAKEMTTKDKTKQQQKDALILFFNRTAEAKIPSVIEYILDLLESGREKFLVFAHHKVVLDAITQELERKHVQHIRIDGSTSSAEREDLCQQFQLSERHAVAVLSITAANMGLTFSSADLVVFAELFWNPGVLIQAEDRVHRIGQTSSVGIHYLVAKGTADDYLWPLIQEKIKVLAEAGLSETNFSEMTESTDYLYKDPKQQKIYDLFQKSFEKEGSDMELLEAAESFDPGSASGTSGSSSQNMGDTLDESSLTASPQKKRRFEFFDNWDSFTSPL
UniProt P17405: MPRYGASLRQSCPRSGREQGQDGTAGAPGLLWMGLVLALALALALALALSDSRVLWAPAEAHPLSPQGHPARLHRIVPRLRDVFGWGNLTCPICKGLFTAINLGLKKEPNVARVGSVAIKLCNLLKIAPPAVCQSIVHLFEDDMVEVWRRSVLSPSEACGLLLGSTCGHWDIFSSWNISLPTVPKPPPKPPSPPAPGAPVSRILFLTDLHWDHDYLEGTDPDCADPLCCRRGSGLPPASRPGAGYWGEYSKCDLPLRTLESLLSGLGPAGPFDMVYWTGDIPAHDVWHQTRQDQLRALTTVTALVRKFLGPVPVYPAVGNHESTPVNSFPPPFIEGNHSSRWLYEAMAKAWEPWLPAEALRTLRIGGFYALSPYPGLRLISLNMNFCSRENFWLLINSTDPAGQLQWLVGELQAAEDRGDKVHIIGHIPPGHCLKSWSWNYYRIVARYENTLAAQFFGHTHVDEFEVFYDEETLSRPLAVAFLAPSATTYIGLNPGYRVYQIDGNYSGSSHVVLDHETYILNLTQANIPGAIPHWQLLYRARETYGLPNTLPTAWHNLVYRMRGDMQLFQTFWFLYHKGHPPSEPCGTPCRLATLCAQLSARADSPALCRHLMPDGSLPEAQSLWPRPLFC
UniProt Q86UD5: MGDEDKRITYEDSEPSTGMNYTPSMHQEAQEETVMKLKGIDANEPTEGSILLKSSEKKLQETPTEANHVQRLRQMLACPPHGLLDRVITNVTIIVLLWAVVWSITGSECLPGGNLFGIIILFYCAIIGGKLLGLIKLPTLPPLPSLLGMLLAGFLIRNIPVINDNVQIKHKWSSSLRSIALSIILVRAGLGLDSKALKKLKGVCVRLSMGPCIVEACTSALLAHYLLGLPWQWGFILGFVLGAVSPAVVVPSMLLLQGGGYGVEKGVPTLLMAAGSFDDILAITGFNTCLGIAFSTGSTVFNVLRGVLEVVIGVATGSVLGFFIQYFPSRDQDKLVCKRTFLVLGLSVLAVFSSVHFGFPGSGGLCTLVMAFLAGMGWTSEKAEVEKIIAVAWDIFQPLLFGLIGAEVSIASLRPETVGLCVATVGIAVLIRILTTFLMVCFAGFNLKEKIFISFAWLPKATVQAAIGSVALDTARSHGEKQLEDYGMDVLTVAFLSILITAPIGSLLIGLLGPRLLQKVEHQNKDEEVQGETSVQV
UniProt O95219: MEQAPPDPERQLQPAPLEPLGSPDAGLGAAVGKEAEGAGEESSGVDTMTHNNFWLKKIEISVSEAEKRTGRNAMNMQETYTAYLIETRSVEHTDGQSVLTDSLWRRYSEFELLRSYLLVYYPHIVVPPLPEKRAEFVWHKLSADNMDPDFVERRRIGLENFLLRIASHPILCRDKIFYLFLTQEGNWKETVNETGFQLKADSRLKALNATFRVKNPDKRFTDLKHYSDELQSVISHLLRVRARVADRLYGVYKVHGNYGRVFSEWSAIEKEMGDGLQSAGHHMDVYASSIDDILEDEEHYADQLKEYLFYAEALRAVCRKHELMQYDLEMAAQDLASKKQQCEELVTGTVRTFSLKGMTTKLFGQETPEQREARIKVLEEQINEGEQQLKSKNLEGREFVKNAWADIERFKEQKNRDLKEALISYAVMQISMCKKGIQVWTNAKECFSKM
UniProt Q96RF0: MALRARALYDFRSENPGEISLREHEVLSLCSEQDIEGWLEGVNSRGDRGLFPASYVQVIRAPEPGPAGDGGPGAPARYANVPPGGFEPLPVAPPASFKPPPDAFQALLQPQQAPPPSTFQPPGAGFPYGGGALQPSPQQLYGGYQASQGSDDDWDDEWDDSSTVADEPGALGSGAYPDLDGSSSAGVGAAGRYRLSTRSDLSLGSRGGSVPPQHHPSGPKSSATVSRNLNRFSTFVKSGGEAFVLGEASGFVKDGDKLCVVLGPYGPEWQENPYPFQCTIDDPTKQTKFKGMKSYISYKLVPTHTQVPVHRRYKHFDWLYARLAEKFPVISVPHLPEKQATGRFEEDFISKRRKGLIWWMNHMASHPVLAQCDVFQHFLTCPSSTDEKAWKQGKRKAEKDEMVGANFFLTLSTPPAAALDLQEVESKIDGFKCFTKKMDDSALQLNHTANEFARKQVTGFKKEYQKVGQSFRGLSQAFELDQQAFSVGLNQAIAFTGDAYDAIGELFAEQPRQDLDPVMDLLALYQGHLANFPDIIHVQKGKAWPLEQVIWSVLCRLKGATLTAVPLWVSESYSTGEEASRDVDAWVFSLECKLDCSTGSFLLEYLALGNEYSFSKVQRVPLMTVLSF
UniProt Q8TAD8: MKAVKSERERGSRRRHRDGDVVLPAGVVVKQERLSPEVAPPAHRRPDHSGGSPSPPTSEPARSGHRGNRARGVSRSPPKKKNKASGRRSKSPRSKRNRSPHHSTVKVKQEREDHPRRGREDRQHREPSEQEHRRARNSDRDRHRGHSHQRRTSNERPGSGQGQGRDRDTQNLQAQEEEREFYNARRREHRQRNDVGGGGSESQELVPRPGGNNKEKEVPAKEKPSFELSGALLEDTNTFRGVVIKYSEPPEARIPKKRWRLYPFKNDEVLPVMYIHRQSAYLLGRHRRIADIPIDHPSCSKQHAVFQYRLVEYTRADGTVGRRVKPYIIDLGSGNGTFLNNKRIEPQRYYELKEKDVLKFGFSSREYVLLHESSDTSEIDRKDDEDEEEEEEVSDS
UniProt Q92543: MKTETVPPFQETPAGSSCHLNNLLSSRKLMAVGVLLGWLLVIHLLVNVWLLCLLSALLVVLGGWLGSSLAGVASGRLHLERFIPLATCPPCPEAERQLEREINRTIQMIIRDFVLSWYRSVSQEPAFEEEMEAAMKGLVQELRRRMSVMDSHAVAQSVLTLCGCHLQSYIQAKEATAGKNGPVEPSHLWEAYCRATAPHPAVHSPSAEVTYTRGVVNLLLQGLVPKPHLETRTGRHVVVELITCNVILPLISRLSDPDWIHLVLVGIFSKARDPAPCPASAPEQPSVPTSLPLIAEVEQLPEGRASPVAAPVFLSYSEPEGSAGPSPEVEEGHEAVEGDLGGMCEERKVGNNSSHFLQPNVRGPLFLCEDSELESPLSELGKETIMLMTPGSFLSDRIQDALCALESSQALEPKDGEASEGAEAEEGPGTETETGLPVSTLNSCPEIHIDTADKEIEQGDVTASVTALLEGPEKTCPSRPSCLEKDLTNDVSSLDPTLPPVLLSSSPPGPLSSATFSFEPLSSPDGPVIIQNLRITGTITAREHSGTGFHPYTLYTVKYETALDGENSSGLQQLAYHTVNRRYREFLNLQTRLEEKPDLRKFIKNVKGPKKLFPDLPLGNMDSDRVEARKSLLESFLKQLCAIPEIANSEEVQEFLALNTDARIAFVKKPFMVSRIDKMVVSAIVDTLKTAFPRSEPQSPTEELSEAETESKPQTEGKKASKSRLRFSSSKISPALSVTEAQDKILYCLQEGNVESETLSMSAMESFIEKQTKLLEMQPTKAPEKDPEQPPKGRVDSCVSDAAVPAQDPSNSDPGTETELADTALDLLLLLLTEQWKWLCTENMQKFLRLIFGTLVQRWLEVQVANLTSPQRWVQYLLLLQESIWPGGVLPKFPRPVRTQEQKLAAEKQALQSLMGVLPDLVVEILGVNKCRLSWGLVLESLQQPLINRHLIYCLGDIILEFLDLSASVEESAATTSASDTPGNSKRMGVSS
UniProt Q02086: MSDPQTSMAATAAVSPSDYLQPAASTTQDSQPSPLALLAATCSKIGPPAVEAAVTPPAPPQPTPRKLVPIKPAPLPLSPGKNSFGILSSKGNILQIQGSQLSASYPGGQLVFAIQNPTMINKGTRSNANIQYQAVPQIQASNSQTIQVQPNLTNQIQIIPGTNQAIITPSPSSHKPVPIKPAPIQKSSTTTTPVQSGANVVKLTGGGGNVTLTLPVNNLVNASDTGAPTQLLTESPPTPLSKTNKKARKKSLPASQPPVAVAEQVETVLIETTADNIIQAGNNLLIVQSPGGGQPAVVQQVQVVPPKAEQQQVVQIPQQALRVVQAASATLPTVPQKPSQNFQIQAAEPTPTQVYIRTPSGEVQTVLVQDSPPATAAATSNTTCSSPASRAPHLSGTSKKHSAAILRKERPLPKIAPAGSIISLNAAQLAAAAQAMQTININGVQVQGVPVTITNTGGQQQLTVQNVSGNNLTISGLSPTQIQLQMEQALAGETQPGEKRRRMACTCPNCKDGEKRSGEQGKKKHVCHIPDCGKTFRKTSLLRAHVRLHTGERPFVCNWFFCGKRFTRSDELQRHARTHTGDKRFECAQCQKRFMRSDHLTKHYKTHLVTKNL
UniProt O00161: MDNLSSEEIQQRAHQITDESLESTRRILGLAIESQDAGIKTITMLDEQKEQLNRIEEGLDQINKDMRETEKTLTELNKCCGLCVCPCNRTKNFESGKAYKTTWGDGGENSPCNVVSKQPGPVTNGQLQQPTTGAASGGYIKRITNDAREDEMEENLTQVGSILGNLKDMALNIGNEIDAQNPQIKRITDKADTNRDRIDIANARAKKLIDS

dasatinib = compound: Cc1nc(Nc2ncc(C(=O)Nc3c(C)cccc3Cl)s2)cc(N2CCN(CCO)CC2)n1 [dasatinib]
In short: as §1

[2] = compound: Cn1cc(-c2ccc3c(c2)CCN3C(=O)Cc2cccc(C(F)(F)F)c2)c2c(N)ncnc21
In short: as §1

tipifarnib = compound: Cn1cncc1[C@@](N)(c1ccc(Cl)cc1)c1ccc2c(c1)c(-c1cccc(Cl)c1)cc(=O)n2C [tipifarnib]
In short: as §1

mubritinib = compound: FC(F)(F)c1ccc(/C=C/c2nc(COc3ccc(CCCCn4ccnn4)cc3)co2)cc1 [mubritinib]
In short: as §1

[3] = compound: NC(=O)Nc1cc(-c2cccc(F)c2)sc1C(=O)N[C@H]1CCCNC1
In short: as §1

[4] = compound: NC(=O)c1cnc(N[C@@H]2CCCC[C@@H]2N)nc1Nc1cccc(-n2nccn2)c1
In short: as §1

[5] = compound: NC1(c2ccc(-c3nc4ccn5c(=O)[nH]nc5c4cc3-c3ccccc3)cc2)CCC1
In short: as §1

[6] = compound: NCC(=O)Nc1ccc(-n2nc(C(F)(F)F)cc2-c2ccc3c(ccc4ccccc43)c2)cc1
In short: as §1

entinostat = compound: Nc1ccccc1NC(=O)c1ccc(CNC(=O)OCc2cccnc2)cc1 [entinostat]
In short: as §1

vorinostat = compound: O=C(CCCCCCC(=O)Nc1ccccc1)NO [vorinostat]
In short: as §1

silmitasertib = compound: O=C(O)c1ccc2c(c1)nc(Nc1cccc(Cl)c1)c1ccncc12 [silmitasertib]
In short: as §1

[7] = compound: Cn1cc(-c2ccc3nnc(C(F)(F)c4ccc5ncccc5c4)n3n2)cn1
In short: as §1

citarinostat = compound: O=C(CCCCCCNC(=O)c1cnc(N(c2ccccc2)c2ccccc2Cl)nc1)NO [citarinostat]
In short: as §1

[8] = compound: c1cc(OCCN2CCCCC2)cc(-c2n[nH]c3ccc(-c4nnc[nH]4)cc23)c1
In short: as §1

bafetinib = compound: Cc1ccc(NC(=O)c2ccc(CN3CC[C@H](N(C)C)C3)c(C(F)(F)F)c2)cc1Nc1nccc(-c2cncnc2)n1 [bafetinib]
In short: as §1

[9] = compound: O=C1NC(=O)C(c2cnc3ccccn23)=C1c1cn2c3c(cc(F)cc13)CN(C(=O)N1CCCCC1)CC2
In short: as §1

nilotinib = compound: Cc1cn(-c2cc(NC(=O)c3ccc(C)c(Nc4nccc(-c5cccnc5)n4)c3)cc(C(F)(F)F)c2)cn1 [nilotinib]
In short: as §1

[10] = compound: Cc1nc(Nc2n[nH]c3c2CN(C(=O)N[C@H](CN(C)C)c2ccccc2)C3(C)C)c2sccc2n1
In short: as §1

[11] = compound: Cc1ncc(-c2ccnc(Nc3ccc(S(C)(=O)=O)cc3)n2)n1C(C)C
In short: as §1

Measured: log2 fold change

SOD3 (UniProt P08294)
inactive: [1] 0.008 | dasatinib 0.02 | [2] -0.075 | tipifarnib 0.043 | mubritinib 0.151 | [3] -0.029 | [4] 0.018 | [5] 0.062 | [6] 0.056 | entinostat 0.094 | vorinostat -0.142 | silmitasertib -0.004

SMIM19 (UniProt Q96E16)
inactive: dasatinib 0.302 | [7] 0.137 | tipifarnib -0.089 | [4] 0.052 | [6] -0.114 | citarinostat -0.026 | [8] 0.182

SNX13 (UniProt Q9Y5W8)
inactive: bafetinib 0.192 | dasatinib 0.067 | [7] 0.065 | mubritinib 0.053 | [3] 0.04 | [5] -0.506 | entinostat -0.109 | silmitasertib 0.257 | [9] -0.006

SLPI (UniProt P03973)
inactive: [7] 0.106

SNX2 isoform 2 (UniProt O60749)
inactive: bafetinib -0.163 | dasatinib -0.097 | [2] 0.16 | tipifarnib -0.155 | [3] 0.043 | [4] -0.004 | [6] -0.264 | entinostat 0.088 | citarinostat 0.065 | [9] -0.183 | [8] -0.1

SMARCD2 (UniProt Q92925)
inactive: [1] 0.118 | [2] 0.05 | tipifarnib 0.077 | mubritinib -0.025 | [4] -0.065 | [5] -0.046 | vorinostat 0.127 | citarinostat 0.05 | silmitasertib -0.298 | [8] -0.145

SNX30 (UniProt Q5VWJ9)
inactive: [3] -0.055 | entinostat -0.041 | [9] 0.24

SOX6 (UniProt P35712)
inactive: [2] 0.006 | [7] -0.15 | tipifarnib 0.015 | mubritinib 0.097 | [5] -0.059 | [6] -0.045 | silmitasertib 0.027

SMTN isoform 6 (UniProt P53814)
inactive: tipifarnib 0.152 | [3] 0.142 | [6] 0.047 | entinostat -0.135 | [9] 0.098

SMARCAL1 (UniProt Q9NZC9)
inactive: [7] 0.169 | mubritinib -0.257 | [5] -0.099 | [6] -0.039 | silmitasertib 0.02

SNRPN isoform 2 (UniProt P63162)
inactive: [1] -0.139 | [7] -0.345 | tipifarnib 0.279 | [4] 0.187 | vorinostat -0.056 | citarinostat 0.152 | [8] 0.103

SMPD1 (UniProt P17405)
inactive: [1] 0.17 | dasatinib -0.138 | [7] -0.135 | tipifarnib 0.003 | mubritinib 0.09 | [3] 0.106 | [4] 0.182 | [5] -0.11 | [6] -0.521 | entinostat -0.097 | vorinostat -0.098 | silmitasertib -0.341

Quoted from the results shown (2 entries):
SMIM19 (UniProt Q96E16)
inactive: dasatinib 0.302 | [7] 0.137 | tipifarnib -0.089 | [4] 0.052 | [6] -0.114 | citarinostat -0.026 | [8] 0.182

SNX13 (UniProt Q9Y5W8)
inactive: bafetinib 0.192 | dasatinib 0.067 | [7] 0.065 | mubritinib 0.053 | [3] 0.04 | [5] -0.506 | entinostat -0.109 | silmitasertib 0.257 | [9] -0.006

The listing continues:

SMARCB1 (UniProt Q12824)
inactive: [1] -0.277 | dasatinib -0.059 | [2] -0.122 | [3] -0.023 | [6] -0.261 | entinostat -0.005 | vorinostat -0.158 | citarinostat -0.171 | [8] -0.103

SLC9B2 (UniProt Q86UD5)
inactive: [6] -0.092 | [9] 0.028

SMUG1 (UniProt Q53HV7)
inactive: nilotinib 0.057 | [10] 0.045 | [11] -0.359 | mubritinib -0.042 | [3] -0.117 | [5] -0.112 | entinostat 0.049 | citarinostat 0.035 | silmitasertib 0.03 | [8] -0.143

SNX4 (UniProt O95219)
inactive: [1] -0.026 | [2] -0.115 | [7] -0.145 | vorinostat 0

SMARCD1 (UniProt Q96GM5)
inactive: mubritinib 0.146 | [5] -0.076 | silmitasertib 0.023

SMU1 isoform 2 (UniProt Q2TAY7)
inactive: bafetinib 0.185 | citarinostat 0.087 | [8] 0.205

SNX18 (UniProt Q96RF0)
inactive: [3] -0.341 | entinostat -0.164 | [9] -0.073

SLX4IP (UniProt Q5VYV7)
inactive: tipifarnib -0.194

SNIP1 (UniProt Q8TAD8)
inactive: [1] -0.091 | vorinostat -0.013

SNX25 (UniProt Q9H3E2)
inactive: nilotinib 0.041 | [10] 0.1 | dasatinib 0.081 | [11] 0.091 | tipifarnib 0.101 | mubritinib -0.095 | [3] -0.11 | [4] 0.128 | [5] -0.211 | entinostat -0.013 | silmitasertib -0.04

SNX19 (UniProt Q92543)
inactive: tipifarnib -0.12 | [3] 0.03 | entinostat -0.038 | citarinostat 0.072 | [9] -0.011 | [8] -0.073

SNX27 (UniProt Q96L92)
inactive: [1] 0.246 | dasatinib -0.117 | [2] -0.081 | [7] -0.081 | [4] -0.036 | [6] -0.088 | vorinostat 0.14 | citarinostat -0.006 | [9] 0.161 | [8] -0.037

SMPDL3A (UniProt Q92484)
inactive: dasatinib 0.27 | [9] 0.029

SP2 (UniProt Q02086)
inactive: dasatinib 0.001 | [3] 0.164 | [4] -0.144 | entinostat -0.018 | citarinostat -0.063 | [8] -0.293

SP4 (UniProt Q02446)
inactive: [1] 0.082 | nilotinib 0.119 | [10] 0.053 | [11] -0.123 | [7] -0.216 | vorinostat 0.118 | citarinostat -0.052 | [8] -0.005

SNAP23 isoform 2 (UniProt O00161)
inactive: dasatinib 0.096 | tipifarnib 0.084 | mubritinib 0.036 | [3] -0.054 | [5] -0.092 | [6] 0.267 | entinostat -0.346 | citarinostat 0.063 | silmitasertib 0.151 | [9] 0.114 | [8] -0.097

Reference: the supplement of paper PMC10849652
